These results are taken from publication PMC8629390.

Chains of the proteins cited; added tags and fusions are not shown.
UniProt P46100: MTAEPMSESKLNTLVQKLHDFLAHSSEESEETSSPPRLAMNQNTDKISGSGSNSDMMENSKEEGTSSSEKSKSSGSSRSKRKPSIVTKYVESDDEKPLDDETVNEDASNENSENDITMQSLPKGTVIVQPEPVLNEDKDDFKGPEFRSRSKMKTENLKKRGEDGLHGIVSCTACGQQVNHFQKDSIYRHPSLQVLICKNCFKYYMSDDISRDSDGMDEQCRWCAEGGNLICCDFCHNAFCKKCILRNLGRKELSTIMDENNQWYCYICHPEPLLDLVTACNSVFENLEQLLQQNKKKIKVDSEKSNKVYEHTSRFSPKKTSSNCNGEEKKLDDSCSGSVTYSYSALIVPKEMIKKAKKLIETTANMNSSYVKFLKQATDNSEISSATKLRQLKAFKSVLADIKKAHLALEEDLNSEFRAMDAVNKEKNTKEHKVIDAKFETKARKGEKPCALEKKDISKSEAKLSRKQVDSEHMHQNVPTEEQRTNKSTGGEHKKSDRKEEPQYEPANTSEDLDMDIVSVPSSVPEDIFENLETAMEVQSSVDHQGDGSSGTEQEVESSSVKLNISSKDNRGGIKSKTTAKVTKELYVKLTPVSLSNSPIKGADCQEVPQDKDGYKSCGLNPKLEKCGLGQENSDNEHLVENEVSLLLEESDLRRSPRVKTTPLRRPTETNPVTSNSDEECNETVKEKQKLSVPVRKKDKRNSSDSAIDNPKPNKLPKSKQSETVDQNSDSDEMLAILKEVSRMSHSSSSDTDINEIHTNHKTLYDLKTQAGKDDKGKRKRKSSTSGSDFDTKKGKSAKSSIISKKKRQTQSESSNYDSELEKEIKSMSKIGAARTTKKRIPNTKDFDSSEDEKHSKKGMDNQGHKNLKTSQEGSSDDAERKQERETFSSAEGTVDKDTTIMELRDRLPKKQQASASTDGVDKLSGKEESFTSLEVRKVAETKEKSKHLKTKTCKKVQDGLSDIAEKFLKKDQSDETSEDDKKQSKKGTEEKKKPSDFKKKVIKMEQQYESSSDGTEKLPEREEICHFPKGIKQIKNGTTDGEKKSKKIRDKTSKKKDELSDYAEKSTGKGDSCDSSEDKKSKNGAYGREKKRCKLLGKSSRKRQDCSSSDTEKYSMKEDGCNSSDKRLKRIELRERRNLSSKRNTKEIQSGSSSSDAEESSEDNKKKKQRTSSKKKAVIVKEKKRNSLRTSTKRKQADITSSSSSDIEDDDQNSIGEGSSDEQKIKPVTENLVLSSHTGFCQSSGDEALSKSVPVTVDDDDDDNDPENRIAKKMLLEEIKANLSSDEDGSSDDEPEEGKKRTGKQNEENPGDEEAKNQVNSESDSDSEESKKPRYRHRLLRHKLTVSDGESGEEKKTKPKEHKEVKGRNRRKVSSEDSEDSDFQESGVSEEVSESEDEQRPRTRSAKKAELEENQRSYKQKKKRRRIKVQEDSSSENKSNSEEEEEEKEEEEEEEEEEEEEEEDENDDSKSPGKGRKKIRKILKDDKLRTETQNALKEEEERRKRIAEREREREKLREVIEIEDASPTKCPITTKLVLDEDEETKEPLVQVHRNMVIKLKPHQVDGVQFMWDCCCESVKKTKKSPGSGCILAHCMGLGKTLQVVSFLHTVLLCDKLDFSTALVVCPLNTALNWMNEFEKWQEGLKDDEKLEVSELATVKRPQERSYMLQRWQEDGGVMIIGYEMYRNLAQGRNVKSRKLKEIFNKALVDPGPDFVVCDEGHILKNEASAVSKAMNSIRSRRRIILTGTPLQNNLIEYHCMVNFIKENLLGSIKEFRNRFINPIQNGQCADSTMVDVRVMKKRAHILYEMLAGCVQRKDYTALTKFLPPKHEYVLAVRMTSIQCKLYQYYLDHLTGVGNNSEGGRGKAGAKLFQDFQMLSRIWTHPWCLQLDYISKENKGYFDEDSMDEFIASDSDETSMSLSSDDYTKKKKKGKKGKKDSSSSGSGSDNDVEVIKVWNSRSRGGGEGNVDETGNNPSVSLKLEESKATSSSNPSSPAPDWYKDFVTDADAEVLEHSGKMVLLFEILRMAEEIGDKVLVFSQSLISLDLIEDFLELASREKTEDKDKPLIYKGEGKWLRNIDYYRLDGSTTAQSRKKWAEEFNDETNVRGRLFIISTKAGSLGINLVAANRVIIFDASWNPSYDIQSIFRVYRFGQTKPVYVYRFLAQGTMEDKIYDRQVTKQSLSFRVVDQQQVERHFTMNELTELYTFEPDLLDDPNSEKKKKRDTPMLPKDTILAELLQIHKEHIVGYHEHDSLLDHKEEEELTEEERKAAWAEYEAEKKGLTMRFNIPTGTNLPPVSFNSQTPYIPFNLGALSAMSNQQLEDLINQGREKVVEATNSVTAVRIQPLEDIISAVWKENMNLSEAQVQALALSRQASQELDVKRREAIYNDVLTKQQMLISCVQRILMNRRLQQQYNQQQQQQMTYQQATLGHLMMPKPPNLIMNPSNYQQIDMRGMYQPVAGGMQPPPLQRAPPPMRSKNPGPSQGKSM

Assay [1] has as its target ATRX fused to a FLAG-tagged BirA* biotin ligase (BioID bait) (UniProt P46100). The assay can be described thus: proximity labelling; BioID with ATRX fused to FLAG-BirA* at the N- or C-terminus in tetracycline-inducible HEK293 Flp-In T-REx cells; 50 uM biotin for the last 8 hr; streptavidin capture and mass spectrometry; SAINT, BFDR ≤ 5% against untransfected cells and BirA* alone, further filtered against NLS-BirA*; biological duplicates.

For assay [2], the target named is T1, FAM207A-BirA* (BioID bait) (UniProt Q9NSI2).
T1 sequence: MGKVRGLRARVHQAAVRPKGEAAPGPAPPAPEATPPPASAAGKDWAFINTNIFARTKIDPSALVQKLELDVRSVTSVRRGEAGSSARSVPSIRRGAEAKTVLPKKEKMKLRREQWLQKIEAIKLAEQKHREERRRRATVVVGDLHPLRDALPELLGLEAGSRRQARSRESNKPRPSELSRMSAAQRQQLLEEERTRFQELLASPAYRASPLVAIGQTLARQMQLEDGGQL
Put plainly: proximity labelling; BioID with FAM207A-BirA* in HEK293 Flp-In T-REx cells; streptavidin capture and mass spectrometry; SAINT against BirA* and NLS-BirA* controls; biological duplicates.

Results are given in words; binding and its absence hold for the method and conditions named. In cells and extracts the contact can be indirect. These calls come from enrichment with a bait or labelling near it, and not all partners need be listed. For some assays here: No binding means not detected with the bait.

B1: IMP3 U3 snoRNP protein (protein, UniProt Q9NV31 1-184)
chain: MVRKLKFHEQKLLKQVDFLNWEVTDHNLHELRVLRRYRLQRREDYTRYNQLSRAVRELARRLRDLPERDQFRVRASAALLDKLYALGLVPTRGSLELCDFVTASSFCRRRLPTVLLKLRMAQHLQAAVAFVEQGHVRVGPDVVTDPAFLVTRSMEDFVTWVDSSKIKRHVLEYNEERDDFDLEA
Take B1: the binding entry in assay [1] is “binds”; in assay [2], “no binding”.
